PubChem BioAssay AID1508597 – Cure First, 2020
In all, the deposit lists about 2,100 reagents; below is a random part of them. 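Calls flag viability under 80% in either arm, not effects specific to rucaparib; the reference for percent is not stated.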 Entries without a mark were called inactive. Not stated in the record: the 100% reference.

Assay: 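Genes whose silencing sensitises or protects ovarian cancer cells against rucaparib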 (primary screen)
Cells: human ovarian carcinoma lines grown from tumours: OCI-P5x (papillary serous) and OCI-C5x (clear cell)
Reagent: siRNA pool against human genes, 1.25 pmol siRNA per well
Timing: 72 h or 96 h, depending on the cell culture
Conditions: rucaparib 20 µM (about IC30) or vehicle, present until read-out
Detection: 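ATP luminescence measured at 72 or 96 h according to the culture, then normalised and expressed as percent viability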
Scale: viability, normalised: higher = more viable cells remaining
Rule for the call: 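a well counts as a hit if its normalised viability is under 80 percent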
Calls: active = viability under 80%; inactive = viability 80% or more

"viability, normalised (%)",gene knocked down,rucaparib or vehicle,cell line,technical replicate
61.4 (active),GNE,Rucaparib,OCI-C5x (clear cell),1
84.3,GNE,Rucaparib,OCI-C5x (clear cell),2
69.7 (active),GNE,Rucaparib,OCI-C5x (clear cell),3
66.6 (active),GNE,Rucaparib,OCI-P5x (serous),1
81.2,GNE,Rucaparib,OCI-P5x (serous),2
60.5 (active),GNE,Rucaparib,OCI-P5x (serous),3
84.1,GNE,Vehicle,OCI-C5x (clear cell),1
63.3 (active),GNE,Vehicle,OCI-C5x (clear cell),2
70.7 (active),GNE,Vehicle,OCI-C5x (clear cell),3
85.2,GNE,Vehicle,OCI-P5x (serous),1
88.2,GNE,Vehicle,OCI-P5x (serous),2
85.6,GNE,Vehicle,OCI-P5x (serous),3

Copied from above for reference:
"viability, normalised (%)",gene knocked down,rucaparib or vehicle,cell line,technical replicate
88.2,GNE,Vehicle,OCI-P5x (serous),2
85.6,GNE,Vehicle,OCI-P5x (serous),3

Additional results:
"viability, normalised (%)",gene knocked down,rucaparib or vehicle,cell line,technical replicate
63.5 (active),TRDMT1,Rucaparib,OCI-C5x (clear cell),1
64.3 (active),TRDMT1,Rucaparib,OCI-C5x (clear cell),2
43.9 (active),TRDMT1,Rucaparib,OCI-C5x (clear cell),3
76.3 (active),TRDMT1,Rucaparib,OCI-P5x (serous),1
75.5 (active),TRDMT1,Rucaparib,OCI-P5x (serous),2
62.9 (active),TRDMT1,Rucaparib,OCI-P5x (serous),3
56.7 (active),TRDMT1,Vehicle,OCI-C5x (clear cell),1
54.1 (active),TRDMT1,Vehicle,OCI-C5x (clear cell),2
61.5 (active),TRDMT1,Vehicle,OCI-C5x (clear cell),3
74.2 (active),TRDMT1,Vehicle,OCI-P5x (serous),1
86.2,TRDMT1,Vehicle,OCI-P5x (serous),2
76.3 (active),TRDMT1,Vehicle,OCI-P5x (serous),3
